From publication PMC9344820
No constants are given. Whether binding was seen depends on the method and setting. In cells and extracts the contact can be indirect. Some binding calls cover weakened binding; strength is not graded here. Tags and fused reporters may be left off the sequences shown.

Biological target: T1, PARD3-p.R133* (nonsense variant c.397C>T), Flag-tagged (human) (UniProt Q8TEW0)
T1 sequence: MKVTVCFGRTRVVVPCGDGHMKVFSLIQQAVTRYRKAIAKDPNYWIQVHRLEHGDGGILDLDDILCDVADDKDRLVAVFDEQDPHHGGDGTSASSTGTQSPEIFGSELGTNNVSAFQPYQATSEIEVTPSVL
Test: co-IP; anti-Flag immunoprecipitation from NP-40 lysates of HEK-293T cells stably expressing the Flag-tagged truncated PARD3; protein A/G beads overnight at 4°C; endogenous PARD3 detected with an antibody against a C-terminal immunogen

In the case of “endogenous full-length PARD3 (Par-3 Family Cell Polarity Regulator) (from UniProt Q8TEW0-1 1-1356)”, the binding is reported as “binds”.
